In the supplement of paper PMC10338343:
± gives the standard deviation. Only a part is listed here, and it is no random draw. Many of these values have a large error. The list shows a part of the results.

How the values were obtained:
[1] = system: MILI (PIWIL2) piRISC loaded with L1MC piRNA (26 nt); assay: pre-steady-state target cleavage rate (min^-1); higher = faster piRNA-guided slicing of the target; details: guide: L1MC piRNA 5'p-UAACUAAAUACUAUGCAAGCUGUAGG
In short: (§1)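 Cleave-'n-Seq: a transcribed, DNA-blocked target RNA library (0.1 nM) was mixed with 1 nM active affinity-purified piRISC carrying one synthetic guide, with or without 500 nM GTSF1 partner protein, in HEPES–potassium acetate buffer at 33 °C for 0–8 or 0–960 min. Uncleaved targets were sequenced and normalised to depth and to weakly complementary targets. Three trials were pooled, and k3 was capped at 0.0001 min^-1. The pre-steady-state cleavage rate came from a burst-and-steady-state fit.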

[2] = system: EfPiwi piRISC loaded with L1MC piRNA (26 nt); assay: pre-steady-state target cleavage rate (min^-1); guide: L1MC piRNA 5'p-UAACUAAAUACUAUGCAAGCUGUAGG; MIWI and MILI are mouse PIWI proteins and EfPiwi is from a freshwater sponge; tags in brackets are library labels; higher = faster piRNA-guided slicing of the target
In short: as §1

[3] = auxiliary factor: 500 nM mouse GTSF1
[4] = auxiliary factor: none (no GTSF1)
[5] = auxiliary factor: 500 nM Ephydatia muelleri Gtsf1
[6] = auxiliary factor: none (no Gtsf1)

| Sequence | pre-steady-state target cleavage rate [1, 3] | pre-steady-state target cleavage rate [1, 4] | pre-steady-state target cleavage rate [2, 5] | pre-steady-state target cleavage rate [2, 6] |
| --- | --- | --- | --- | --- |
| UCCUGGUUCAGCUUGCAUAGUAUAUAGUUA | 0.198 ± 0.034 | 0.0112 ± 0.0032 | 0.00607 ± 0.0027 | 0.000694 ± 0.017 |
| UCCUGGAUCAGCUUGCAUAGUAUUGUAGUUA | 0.176 ± 0.018 | 0.00992 ± 0.0032 | 0.00652 ± 0.0027 | 0.00172 ± 0.0059 |
| UCCUGGAUGUCGUAGCAUAGAAUUUAGUUA | 0.0013 ± 0.006 | 0.000766 ± 0.0081 | 0.000277 ± 0.0098 | 0.000415 ± 0.017 |
| UCCUGGUACAGCUUGCUUAGUAUUAAGUUA | 0.163 ± 0.041 | 0.00213 ± 0.0036 | 0.00311 ± 0.0027 | 0.00125 ± 0.0087 |
| UCCUGGAACAGCUUGCAAAGUAUUUAGAUA | 0.085 ± 0.014 | 0.00298 ± 0.0022 | 0.0036 ± 0.0024 | 0.000471 ± 0.014 |
| UCCUGGAUGUGCUUGCUUAGUAUUAAGUUA | 0.0615 ± 0.017 | 0.00288 ± 0.0034 | 0.000676 ± 0.0067 | 0.000126 ± 0.095 |
| UCCUCCUACAGCUUGCAUAGUAUGUUAGUUA | 0.126 ± 0.022 | 0.00205 ± 0.0038 | 0.00459 ± 0.0021 | 0.000476 ± 0.011 |
| UCCUGCUACAGCUUGCAAUGUAUUUAGUAA | 0.124 ± 0.023 | 0.00251 ± 0.0029 | 0.000794 ± 0.0036 | 0.000511 ± 0.012 |
| UCCUGGAUGUGCUUGCAUAGUAUUGAGUUA | 0.0612 ± 0.019 | 0.00196 ± 0.0044 | 0.00273 ± 0.0022 | 0.000381 ± 0.029 |
| UCCUGGUACAGUCUUGCAUAGUAUUUAGUUA | 0.254 ± 0.033 | 0.0122 ± 0.0047 | 0.00209 ± 0.0046 | 0.000346 ± 0.04 |
| UCCUGGAACGGCUUGCAUAGUAUUUAGUUA | 0.259 ± 0.017 | 0.0129 ± 0.0024 | 0.0243 ± 0.0075 | 0.000931 ± 0.013 |
| UCCUGGAUGAGCUUGCAUAGUUAAUAGUUA | 0.00524 ± 0.004 | 0.00242 ± 0.0028 | 0.00122 ± 0.0049 | 0.000601 ± 0.012 |
| UCCUCCUACAGCUUGCAUAGUAUUUGGUUA | 0.279 ± 0.024 | 0.00706 ± 0.0026 | 0.00583 ± 0.0021 | 0.000736 ± 0.0094 |
| UCCUGGAUGUGCUUAGCAUAGUAUUUAGUUA | 0.124 ± 0.015 | 0.00625 ± 0.0028 | 0.00497 ± 0.0028 | 0.00103 ± 0.0087 |
| UCCUGGAACAGCUUGCAUAGUAUAUAGAUA | 0.0877 ± 0.022 | 0.0013 ± 0.0052 | 0.00205 ± 0.0026 | 0.000535 ± 0.017 |
| UCCUGCUACAGCUUGCAUAGUAUGUUAGUUA | 0.164 ± 0.036 | 0.00171 ± 0.0045 | 0.00247 ± 0.002 | 0.000511 ± 0.017 |
| UCCUGGAUCAGCUAGCAUAGUAUUUAGAUA | 0.0957 ± 0.019 | 0.00275 ± 0.0026 | 0.00122 ± 0.0051 | 0.000418 ± 0.017 |
| UCCUGCUACAGCUUGCAAAGUAUUUAGUUA | 0.13 ± 0.012 | 0.00686 ± 0.0019 | 0.00608 ± 0.0019 | 0.000611 ± 0.0088 |
| UCCUGGGACAGCUUGCAUAGUAUUUAGUUA | 0.231 ± 0.024 | 0.0138 ± 0.0034 | 0.0163 ± 0.0059 | 0.00525 ± 0.0051 |
| UCCUGGAUGAGCUUGCAUUGUAUUUAGAUA | 0.156 ± 0.038 | 0.00133 ± 0.005 | 0.00248 ± 0.0021 | 0.000448 ± 0.018 |
| UCCUGGAUGAGCUUGCAUAGUAUUCUAGUUA | 0.165 ± 0.029 | 0.00277 ± 0.0032 | 0.00246 ± 0.0037 | 0.000533 ± 0.021 |

Shown bar-delimited: entries from further up
Sequence | pre-steady-state target cleavage rate [1, 3] | pre-steady-state target cleavage rate [1, 4] | pre-steady-state target cleavage rate [2, 5] | pre-steady-state target cleavage rate [2, 6]
UCCUGGAUGUGCUUGCUUAGUAUUAAGUUA | 0.0615 ± 0.017 | 0.00288 ± 0.0034 | 0.000676 ± 0.0067 | 0.000126 ± 0.095
UCCUCCUACAGCUUGCAUAGUAUGUUAGUUA | 0.126 ± 0.022 | 0.00205 ± 0.0038 | 0.00459 ± 0.0021 | 0.000476 ± 0.011
UCCUGCUACAGCUUGCAAUGUAUUUAGUAA | 0.124 ± 0.023 | 0.00251 ± 0.0029 | 0.000794 ± 0.0036 | 0.000511 ± 0.012
UCCUGGAUGUGCUUGCAUAGUAUUGAGUUA | 0.0612 ± 0.019 | 0.00196 ± 0.0044 | 0.00273 ± 0.0022 | 0.000381 ± 0.029
UCCUGGUACAGUCUUGCAUAGUAUUUAGUUA | 0.254 ± 0.033 | 0.0122 ± 0.0047 | 0.00209 ± 0.0046 | 0.000346 ± 0.04
UCCUGGAACGGCUUGCAUAGUAUUUAGUUA | 0.259 ± 0.017 | 0.0129 ± 0.0024 | 0.0243 ± 0.0075 | 0.000931 ± 0.013
UCCUGGAUGAGCUUGCAUAGUUAAUAGUUA | 0.00524 ± 0.004 | 0.00242 ± 0.0028 | 0.00122 ± 0.0049 | 0.000601 ± 0.012
UCCUCCUACAGCUUGCAUAGUAUUUGGUUA | 0.279 ± 0.024 | 0.00706 ± 0.0026 | 0.00583 ± 0.0021 | 0.000736 ± 0.0094
UCCUGGAUGUGCUUAGCAUAGUAUUUAGUUA | 0.124 ± 0.015 | 0.00625 ± 0.0028 | 0.00497 ± 0.0028 | 0.00103 ± 0.0087
UCCUGGAACAGCUUGCAUAGUAUAUAGAUA | 0.0877 ± 0.022 | 0.0013 ± 0.0052 | 0.00205 ± 0.0026 | 0.000535 ± 0.017

(listing goes on)

| Sequence | pre-steady-state target cleavage rate [1, 3] | pre-steady-state target cleavage rate [1, 4] | pre-steady-state target cleavage rate [2, 5] | pre-steady-state target cleavage rate [2, 6] |
| --- | --- | --- | --- | --- |
| UCCUGGAUGUGCUUGCAUAGUAUUUAGUCA | 0.117 ± 0.018 | 0.00487 ± 0.0035 | 0.00263 ± 0.0019 | 0.000489 ± 0.017 |
| UCCUGGAUGAGCUUGCAUAGUGAUUUAGUUA | 0.00836 ± 0.0043 | 0.00434 ± 0.0027 | 0.000572 ± 0.0057 | 0.00097 ± 0.011 |
| UCCUGGAUGAGCUUGCAAAGAAUUUAGUUA | 0.00266 ± 0.004 | 0.00185 ± 0.0039 | 0.000556 ± 0.0071 | 0.000118 ± 0.034 |
| UCCUGGUACAGCUUGCAUAGUACUUUAGUUA | 0.147 ± 0.024 | 0.00705 ± 0.0032 | 0.00549 ± 0.0027 | 0.00149 ± 0.0064 |
| UCCUGGUACAGCUUGCAUAGUUUUUAGUUA | 0.0505 ± 0.013 | 0.00579 ± 0.0038 | 0.00335 ± 0.0044 | 0.000689 ± 0.02 |
| UCCUGGAUCAGCUUGCAUAGUAUUUAGAUUA | 0.0478 ± 0.011 | 0.00315 ± 0.0026 | 0.00483 ± 0.0016 | 0.00131 ± 0.0073 |
| UCCUGGAUGUCCUUGGAUAGUAUUUAGUUA | 0.153 ± 0.021 | 0.00762 ± 0.0021 | 0.00248 ± 0.0031 | 0.000195 ± 0.026 |
| UCCUGGAACAGCUUGCAUAGUAUAUUAGUUA | 0.247 ± 0.019 | 0.00778 ± 0.0024 | 0.0104 ± 0.0043 | 0.00267 ± 0.0063 |
| UCCUGGAACAGCUUGCAUAGUAUUUAAGUUA | 0.195 ± 0.029 | 0.00781 ± 0.0028 | 0.0138 ± 0.0052 | 0.00182 ± 0.0071 |
| UCCUCCUACAGCUUGCAUAGUAUUUGAGUUA | 0.199 ± 0.028 | 0.00484 ± 0.0026 | 0.00541 ± 0.0025 | 0.000816 ± 0.0083 |
| UCCUGGAACAGCUUGCAUAGUUAUUAGUUA | 0.0369 ± 0.0099 | 0.00268 ± 0.0034 | 0.00251 ± 0.0017 | 0.000907 ± 0.0079 |
| UCCUGGUACAGCUUGCGUAGUAUUUAGUUA | 0.219 ± 0.021 | 0.014 ± 0.004 | 0.0273 ± 0.0095 | 0.000576 ± 0.027 |
| UCCUGGAUCAGCUUGCUAUGUAUUUAGUUA | 0.0176 ± 0.0068 | 0.00553 ± 0.0022 | 0.00195 ± 0.0049 | 0.00054 ± 0.014 |
| UCCUGCUACAGCUUGCAAUCUAUUUAGUUA | 0.0303 ± 0.0068 | 0.00243 ± 0.0019 | 0.00144 ± 0.0044 | 0.000112 ± 0.023 |
| UCCUGGAUGUGCUUGCAUAGUAUUUUGAUA | 0.0122 ± 0.0054 | 0.00139 ± 0.0051 | 0.0024 ± 0.0034 | 0.000773 ± 0.011 |
| UCCUGGUACAGCGUUGCAUAGUAUUUAGUUA | 0.196 ± 0.027 | 0.0109 ± 0.0053 | 0.00749 ± 0.0028 | 0.000208 ± 0.066 |
| UCCUGGAACAGCUUGCAAAGUAUUUAGAAA | 0.166 ± 0.038 | 0.00214 ± 0.0032 | 0.00418 ± 0.002 | 0.000214 ± 0.037 |
| UCCUGGUACAGCAUGGAUAGUAUUUAGUUA | 0.197 ± 0.019 | 0.0172 ± 0.0046 | 0.00254 ± 0.0031 | 0.000789 ± 0.011 |
| UCCUGCAACAGCUUGCAUAGUAUUUACUUA | 0.122 ± 0.012 | 0.00262 ± 0.0035 | 0.00226 ± 0.003 | 0.000212 ± 0.023 |
| UCCUGGUACAUGCUUGCAUAGUAUUUAGUUA | 0.131 ± 0.018 | 0.00627 ± 0.0036 | 0.0077 ± 0.0034 | 0.00427 ± 0.0043 |
| UCCUGGUACAGCUUGCAAAGUAUUAAGUUA | 0.0919 ± 0.018 | 0.00406 ± 0.0027 | 0.00292 ± 0.0026 | 0.000747 ± 0.011 |
